Laboratory results from patent US20100291638.
Tags and fusion partners may be left off the protein sequences shown.

Tests used:
Assay in all cases: activity assay
[1] = test system: T1, DNA polymerase 3173 (uncultured hot spring virus (Octopus Spring)); details: primer extension, 70 C, 2 mM MgSO4; 3'-5' exonuclease present; purified recombinant protein; label: 5'-ROX on primer
T1 sequence (limits assumed): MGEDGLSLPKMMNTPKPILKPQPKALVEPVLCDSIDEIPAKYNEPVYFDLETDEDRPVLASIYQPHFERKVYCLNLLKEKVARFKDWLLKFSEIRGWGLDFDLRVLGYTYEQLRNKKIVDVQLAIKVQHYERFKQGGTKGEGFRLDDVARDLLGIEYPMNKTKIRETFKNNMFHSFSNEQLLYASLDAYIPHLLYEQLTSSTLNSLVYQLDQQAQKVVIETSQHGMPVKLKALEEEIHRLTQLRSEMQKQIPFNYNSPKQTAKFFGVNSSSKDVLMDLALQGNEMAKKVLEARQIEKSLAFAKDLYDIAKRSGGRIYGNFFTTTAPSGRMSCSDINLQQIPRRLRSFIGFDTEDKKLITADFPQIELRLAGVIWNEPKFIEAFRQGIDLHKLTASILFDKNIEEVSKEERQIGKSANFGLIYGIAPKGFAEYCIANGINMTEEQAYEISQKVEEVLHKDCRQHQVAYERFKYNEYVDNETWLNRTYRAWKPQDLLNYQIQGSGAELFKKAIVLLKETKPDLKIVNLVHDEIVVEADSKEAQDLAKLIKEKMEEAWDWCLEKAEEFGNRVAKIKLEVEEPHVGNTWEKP

[2] = test system: T2, DNA polymerase clone 2323 (uncultured hot spring virus); details: primer extension, 70 C, 2 mM MgSO4; 3' exonuclease present; protein in a lysate after overexpression; label: 5'-ROX on primer
T2 sequence (limits assumed): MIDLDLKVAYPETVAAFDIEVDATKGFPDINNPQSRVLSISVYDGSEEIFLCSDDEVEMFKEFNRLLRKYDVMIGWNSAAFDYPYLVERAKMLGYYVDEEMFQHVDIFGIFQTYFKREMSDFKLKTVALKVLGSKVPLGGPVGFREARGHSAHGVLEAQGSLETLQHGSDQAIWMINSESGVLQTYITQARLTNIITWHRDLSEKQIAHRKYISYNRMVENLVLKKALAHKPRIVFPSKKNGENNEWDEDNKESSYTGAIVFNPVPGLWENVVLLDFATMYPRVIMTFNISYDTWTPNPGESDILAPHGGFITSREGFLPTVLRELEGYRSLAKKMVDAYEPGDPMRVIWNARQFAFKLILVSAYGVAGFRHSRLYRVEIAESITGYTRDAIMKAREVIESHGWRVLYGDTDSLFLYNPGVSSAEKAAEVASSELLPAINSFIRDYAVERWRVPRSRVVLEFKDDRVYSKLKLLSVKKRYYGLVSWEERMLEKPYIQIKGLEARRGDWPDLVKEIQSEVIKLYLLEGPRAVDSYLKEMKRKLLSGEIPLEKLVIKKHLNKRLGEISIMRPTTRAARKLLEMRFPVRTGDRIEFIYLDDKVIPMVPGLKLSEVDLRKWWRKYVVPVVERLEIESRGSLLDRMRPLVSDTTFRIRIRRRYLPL

[3] = test system: T3, DNA polymerase clone 2783 (uncultured hot spring virus); details: primer extension, 70 C, 2 mM MgSO4; 3' exonuclease present; protein in a lysate after overexpression; label: 5'-ROX on primer
T3 sequence (limits assumed): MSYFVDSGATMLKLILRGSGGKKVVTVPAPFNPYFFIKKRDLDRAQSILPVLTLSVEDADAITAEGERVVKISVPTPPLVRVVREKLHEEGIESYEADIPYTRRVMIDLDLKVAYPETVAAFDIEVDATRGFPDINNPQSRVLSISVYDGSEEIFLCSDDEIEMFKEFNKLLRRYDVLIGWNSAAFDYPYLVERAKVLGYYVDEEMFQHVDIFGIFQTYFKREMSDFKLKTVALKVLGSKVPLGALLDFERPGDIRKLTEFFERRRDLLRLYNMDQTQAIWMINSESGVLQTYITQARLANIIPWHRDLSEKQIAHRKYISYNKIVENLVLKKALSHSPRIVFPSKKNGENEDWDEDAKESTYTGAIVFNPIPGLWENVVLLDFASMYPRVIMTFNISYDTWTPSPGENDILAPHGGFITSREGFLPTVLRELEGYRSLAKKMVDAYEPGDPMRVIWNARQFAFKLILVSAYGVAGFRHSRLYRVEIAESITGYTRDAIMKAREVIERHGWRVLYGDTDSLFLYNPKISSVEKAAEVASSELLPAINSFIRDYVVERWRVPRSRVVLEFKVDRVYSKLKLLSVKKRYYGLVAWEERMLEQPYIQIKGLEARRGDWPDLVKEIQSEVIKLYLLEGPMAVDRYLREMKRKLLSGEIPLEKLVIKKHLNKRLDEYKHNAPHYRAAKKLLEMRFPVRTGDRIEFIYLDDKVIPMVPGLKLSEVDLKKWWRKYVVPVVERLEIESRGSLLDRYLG

[4] = test system: T4, DNA polymerase clone 3063 (uncultured hot spring virus); details: primer extension, 70 C, 2 mM MgSO4; 3' exonuclease present; protein in a lysate after overexpression; label: 5'-ROX on primer
T4 sequence (limits assumed): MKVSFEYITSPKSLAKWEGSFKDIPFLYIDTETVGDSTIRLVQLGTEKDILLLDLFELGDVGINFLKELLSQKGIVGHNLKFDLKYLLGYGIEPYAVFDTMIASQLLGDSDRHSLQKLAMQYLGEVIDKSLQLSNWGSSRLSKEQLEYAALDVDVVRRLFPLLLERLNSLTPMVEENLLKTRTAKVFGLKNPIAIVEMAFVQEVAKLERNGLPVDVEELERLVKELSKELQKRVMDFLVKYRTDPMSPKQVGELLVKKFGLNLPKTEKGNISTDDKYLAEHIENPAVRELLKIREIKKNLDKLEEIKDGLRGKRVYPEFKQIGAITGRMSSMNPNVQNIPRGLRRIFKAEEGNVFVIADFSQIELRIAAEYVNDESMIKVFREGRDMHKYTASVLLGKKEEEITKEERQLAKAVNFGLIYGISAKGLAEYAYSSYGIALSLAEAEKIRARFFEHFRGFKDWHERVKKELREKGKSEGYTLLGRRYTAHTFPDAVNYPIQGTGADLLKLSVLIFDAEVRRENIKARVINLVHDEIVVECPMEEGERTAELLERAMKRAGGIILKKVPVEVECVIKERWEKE

[5] = test system: T5, DNA polymerase clone 4110 (uncultured hot spring virus); details: primer extension, 70 C, 2 mM MgSO4; no exonuclease; protein in a lysate after overexpression; label: 5'-ROX on primer
T5 sequence (limits assumed): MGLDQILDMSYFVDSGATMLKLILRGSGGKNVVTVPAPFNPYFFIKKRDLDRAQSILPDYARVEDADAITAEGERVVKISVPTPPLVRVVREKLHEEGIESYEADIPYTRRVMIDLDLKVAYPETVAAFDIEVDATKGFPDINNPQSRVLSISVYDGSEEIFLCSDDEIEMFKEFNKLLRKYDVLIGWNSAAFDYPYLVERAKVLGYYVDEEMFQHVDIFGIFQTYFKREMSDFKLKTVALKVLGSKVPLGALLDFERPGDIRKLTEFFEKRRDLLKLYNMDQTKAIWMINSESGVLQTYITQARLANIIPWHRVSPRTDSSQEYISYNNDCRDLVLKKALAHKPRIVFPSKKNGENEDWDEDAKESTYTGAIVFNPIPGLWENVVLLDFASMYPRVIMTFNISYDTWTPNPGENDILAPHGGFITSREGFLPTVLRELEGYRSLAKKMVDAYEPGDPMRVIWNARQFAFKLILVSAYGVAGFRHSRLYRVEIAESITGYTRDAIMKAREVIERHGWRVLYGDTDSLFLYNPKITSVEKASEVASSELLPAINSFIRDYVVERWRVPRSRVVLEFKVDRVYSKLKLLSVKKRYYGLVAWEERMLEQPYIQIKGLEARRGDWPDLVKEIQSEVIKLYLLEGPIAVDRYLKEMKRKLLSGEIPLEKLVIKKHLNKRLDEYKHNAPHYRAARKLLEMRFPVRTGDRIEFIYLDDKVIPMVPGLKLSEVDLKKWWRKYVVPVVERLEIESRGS

[6] = test system: T6, DNA polymerase clone 488 (uncultured hot spring virus); details: primer extension, 70 C, 2 mM MgSO4; no exonuclease; protein in a lysate after overexpression; label: 5'-ROX on primer
T6 sequence (limits assumed): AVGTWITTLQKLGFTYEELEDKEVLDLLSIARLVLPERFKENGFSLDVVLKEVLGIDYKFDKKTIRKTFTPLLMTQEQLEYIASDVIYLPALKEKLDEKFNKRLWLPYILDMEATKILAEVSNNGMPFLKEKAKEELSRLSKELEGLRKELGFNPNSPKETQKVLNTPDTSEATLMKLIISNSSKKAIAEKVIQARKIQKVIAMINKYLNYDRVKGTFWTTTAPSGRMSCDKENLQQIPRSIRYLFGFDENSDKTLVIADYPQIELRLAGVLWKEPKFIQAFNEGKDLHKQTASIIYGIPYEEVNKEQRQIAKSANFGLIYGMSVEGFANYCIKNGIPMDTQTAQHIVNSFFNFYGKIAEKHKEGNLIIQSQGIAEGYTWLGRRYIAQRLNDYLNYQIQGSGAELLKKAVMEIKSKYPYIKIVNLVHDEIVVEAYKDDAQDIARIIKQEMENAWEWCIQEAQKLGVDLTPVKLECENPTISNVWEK

[7] = test system: T7, DNA polymerase clone 967 (uncultured hot spring virus (Octopus Spring)); details: primer extension, 70 C, 2 mM MgSO4; no exonuclease; protein in a lysate after overexpression; label: 5'-ROX on primer
T7 sequence (limits assumed): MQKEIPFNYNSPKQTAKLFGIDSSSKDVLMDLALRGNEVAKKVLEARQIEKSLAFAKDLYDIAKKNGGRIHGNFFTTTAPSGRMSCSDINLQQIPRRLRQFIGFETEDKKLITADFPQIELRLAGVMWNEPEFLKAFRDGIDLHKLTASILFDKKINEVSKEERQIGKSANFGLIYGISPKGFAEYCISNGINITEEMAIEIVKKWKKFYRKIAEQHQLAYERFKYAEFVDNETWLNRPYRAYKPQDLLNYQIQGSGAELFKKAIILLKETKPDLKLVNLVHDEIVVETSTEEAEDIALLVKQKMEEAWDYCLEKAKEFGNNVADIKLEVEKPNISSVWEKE

Measured: activity on this sequence

TGTCTCAGACAGTCAGACTGCTGACAGATGACTTGCA / AACGTGCAAGTCATCTGTCAGCAGTCTGACTGTCTGAGACA [37-mer primer/41-mer template]
active: all assays above
